2 substances from paper PMC10163345 can be followed below.

The chains behind the UniProt entries cited, without tags or fusion partners.
UniProt Q9BYI3: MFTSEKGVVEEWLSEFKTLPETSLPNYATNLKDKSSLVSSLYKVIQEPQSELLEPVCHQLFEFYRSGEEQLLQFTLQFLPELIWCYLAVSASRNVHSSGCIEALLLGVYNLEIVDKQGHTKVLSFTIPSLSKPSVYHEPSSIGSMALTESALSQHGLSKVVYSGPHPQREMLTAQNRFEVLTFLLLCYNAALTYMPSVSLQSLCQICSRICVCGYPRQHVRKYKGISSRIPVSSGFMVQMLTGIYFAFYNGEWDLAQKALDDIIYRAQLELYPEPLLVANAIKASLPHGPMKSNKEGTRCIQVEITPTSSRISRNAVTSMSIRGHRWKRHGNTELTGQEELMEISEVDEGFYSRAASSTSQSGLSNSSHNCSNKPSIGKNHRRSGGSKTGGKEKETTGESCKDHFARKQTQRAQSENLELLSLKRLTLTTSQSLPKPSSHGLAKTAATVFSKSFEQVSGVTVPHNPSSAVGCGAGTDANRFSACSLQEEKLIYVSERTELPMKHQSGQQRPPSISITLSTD

These are yes or no findings as the source states them, for the method shown. Binding seen in cells or lysates may run through a third protein. Here binding means that the protein was enriched with, or labelled near, the bait; the list need not be complete.

For this assay, the target named is miniTurbo–3×FLAG fused to WT CNAα (calcineurin catalytic subunit alpha, PPP3CA) (human) (UniProt Q08209). The experiment in a line: proximity labelling; miniTurbo–3×FLAG–CNAα (WT or NIRmut) stably expressed in HEK293 Flp-In T-REx cells; 50 μM biotin for 15 min at 37°C; asynchronous, G1/S or mitotic cells; streptavidin purification, mass spectrometry (DDA and DIA), SAINT against miniTurbo–3×FLAG alone, BFDR≤0.01.

Turning to FAM126A (from UniProt Q9BYI3 1-521), the binding entry is reported as “binds”.

For PI4KA (from UniProt P42356 1-2102), the binding entry was “binds”.
